## Primary screen of a compound library

The values are deposited in ChEMBL (CHEMBL3988442, “University of Dundee, Small-Polar-MMV Screening Library” (2021)).

Results are given as percent effect. How 0% and 100% were set is not recorded. Most values in the screen are low, and negative values occur. The compounds are a random part of those screened. Two or more numbers in one place are separate tests of the same structure; such repeats can differ widely.

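Viability assay of Plasmodium falciparum sporozoites; the read-out is not stated. The concentration is filed as 10 mM, unlikely as a test dose, so the dose is not known. Direction is inferred from retests: higher values go with lower viability. Strong results were mostly tested again. About 34,000 compounds were tested under these conditions; 0.84% (about 280) showed 50% or more at least once.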

{"structure": "CC1CCCN(c2ncc(-c3ccccc3F)c(-c3nccn3C)n2)C1", "stereo": "stereo unspecified", "percent effect": 1.54}
{"structure": "COCC(=O)N(C)Cc1nc(N(C)C)ncc1-c1ccncc1", "percent effect": -4.273}
{"structure": "O=C(O)C(F)(F)F.O=C(c1ccoc1)N1CC[C@@H](N2CCOCC2)[C@@H]1Cc1ccccc1", "percent effect": -6.569}
{"structure": "CC(=O)Nc1ccc(CN2CCCC(c3cc4ncccc4[nH]3)C2)cc1", "stereo": "stereo unspecified", "percent effect": 9.518}
{"structure": "CCc1nc(CN2CCCN(C(=O)COCC3CC3)CC2)cs1", "percent effect": 11.27}
{"structure": "Fc1ccc(Oc2nccnc2C2CCN(C3CCOCC3)CC2)cc1", "percent effect": 6.652}
{"structure": "C[C@@H]1CN(C(=O)c2nc3sccn3c2-c2ncc[nH]2)C[C@H](C)O1", "percent effect": 0.641}
{"structure": "CC(Cc1ccco1)NC(=O)Nc1ccc(N(C)C)nc1", "stereo": "stereo unspecified", "percent effect": 5.942}
{"structure": "O=C(O)C(F)(F)F.[H][C@]12CCN(Cc3ccc(C)s3)CC[C@]1([H])N(S(C)(=O)=O)CCO2", "percent effect": 2.946}
{"structure": "COCCN1CCN(CC(C)(O)c2cccc(C(F)(F)F)c2)CC1", "stereo": "stereo unspecified", "percent effect": -1.398}
{"structure": "O=C(O)C(F)(F)F.[H][C@@]12C[C@H](c3nc(C)no3)CN(Cc3ccc(F)cc3)[C@]1([H])CCO2", "percent effect": -6.397}
{"structure": "CNS(=O)(=O)c1ccc(CNC(=O)C2CN(C)CCO2)cc1", "stereo": "stereo unspecified", "percent effect": -1.173}
{"structure": "COCC1c2nnn(C)c2CCN1C(=O)CCc1cccc(OC)c1", "stereo": "stereo unspecified", "percent effect": 1.051}
{"structure": "CC(C(=O)NCCOc1ccc2c(c1)OCO2)n1cncn1", "stereo": "stereo unspecified", "percent effect": 2.714}
{"structure": "CN1CCN(C(=O)c2ccccc2)CC(Cc2cc(N(C)C)ncn2)C1", "stereo": "stereo unspecified", "percent effect": -0.3539}
{"structure": "CCN1CC2(CC1=O)CN(Cc1ccccn1)CCN(C(C)=O)C2.O=C(O)C(F)(F)F.O=C(O)C(F)(F)F", "stereo": "stereo unspecified", "percent effect": -3.069}
{"structure": "CNc1ncc(-c2ccnn2C2CCN(C(C)=O)CC2)cn1", "percent effect": 4.488}
{"structure": "O=C(O)C(F)(F)F.O=C(O)C(F)(F)F.[H][C@@]12CCCO[C@]1([H])[C@@H](N(C)Cc1cncnc1)CN2CC1CC1", "percent effect": -3.571}
{"structure": "COC(=O)c1ccc2c(-c3ccnc(N[C@@H](C)CO)n3)c[nH]c2c1", "percent effect": -3.81}
{"structure": "CCN1C(=O)C2(CCN(CCN(C)C)CC2)c2ccccc21.O=C(O)C(F)(F)F.O=C(O)C(F)(F)F", "percent effect": 7.764}
{"structure": "[O-][S+](CCN1CCc2[nH]nc(C(F)(F)F)c2C1)c1ccccc1", "stereo": "stereo unspecified", "percent effect": -3.448}
{"structure": "COCCC1COC2(CCN(C(=O)c3ccccc3)CC2)C1", "stereo": "stereo unspecified", "percent effect": 2.32}
{"structure": "O=C(O)C(F)(F)F.O=S1(=O)c2ccccc2C2(CCN(Cc3ccccc3)C2)N1CC1CC1", "stereo": "stereo unspecified", "percent effect": -8.881}
{"structure": "Cc1c(C)n(-c2ccccn2)c2nc3c(c(N)c12)CCCC3", "percent effect": 9.43}
{"structure": "CNc1nc(C2CCCN2C(C)=O)nc2c1CN(CCO)CC2.O=CO", "stereo": "stereo unspecified", "percent effect": 4.017}
{"structure": "COCC(=O)N1Cc2cnc(Cc3ccc(OC)cc3)nc2C1", "percent effect": -4.132}
{"structure": "COc1ccc(CC(=O)N2CCN(Cc3ccco3)C[C@@H]2C)cc1OC", "percent effect": 13.4}
{"structure": "CN(C)C(=O)NC1COC2(CCN(Cc3ccc(Cl)c(F)c3)CC2)C1.O=C(O)C(F)(F)F", "stereo": "stereo unspecified", "percent effect": "32.83 and -8.41 and -10.39"}
{"structure": "O=C(O)C(F)(F)F.[H][C@]12CCC[C@@H](CNc3ncccn3)[C@@]1([H])CN(Cc1cnn(C)c1)C2", "percent effect": -4.029}
{"structure": "O=C(O)C(F)(F)F.[H][C@]12C[C@H](C(=O)NC)N(C)[C@@]1([H])CN(S(=O)(=O)c1ccccc1)C2", "percent effect": -4.362}
{"structure": "COCC(=O)NCCn1nc(-c2cc(C)oc2C)ccc1=O", "percent effect": 0.3805}
{"structure": "Cc1cc(CN(C)C(=O)c2ccc(Cl)c(N3CCCC3=O)c2)no1", "percent effect": 5.09}
{"structure": "CCN(CC)S(=O)(=O)N1CCC(c2c(C(N)=O)sc3ccccc23)C1", "stereo": "stereo unspecified", "percent effect": 8.719}
{"structure": "Cc1nccc(CNC(=O)N2CCN(Cc3ccccc3)C[C@H]2C)n1", "percent effect": -11.01}
{"structure": "CN(C)c1cccc(C(=O)Nc2ccn(CCc3ccncc3)n2)c1", "percent effect": -13.41}
{"structure": "COc1cc(OC)c2nc(NCCN3CCNC3=O)cc(C)c2c1", "percent effect": -9.692}
{"structure": "COc1ccc(CNC(=O)Nc2cccnc2N2CCCC2)cc1", "percent effect": 0.8371}
{"structure": "COCCC(=O)N1CCCC1c1csc(Nc2ncccn2)n1", "stereo": "stereo unspecified", "percent effect": 1.004}
{"structure": "O=S1(=O)CCC(N(Cc2nc(-c3ccccn3)no2)Cc2cccs2)C1", "stereo": "stereo unspecified", "percent effect": 22.13}
{"structure": "O=C(O)C(F)(F)F.[H][C@@]12CCCO[C@]1([H])[C@H](NC(=O)c1cnoc1C)CN(C1CCC1)C2", "percent effect": 5.592}
{"structure": "CCn1c(CN2CCN(CCO)CC2)nc2c(F)cccc21", "percent effect": 7.977}
{"structure": "CCC(C)NC(=O)CS(=O)(=O)Cc1cc(C)ccc1C", "stereo": "stereo unspecified", "percent effect": -14.1}
{"structure": "Cl.O=C(O)CN1CCC(C(F)(F)F)CC1", "percent effect": -16.8}
{"structure": "CC(C)CCCNC(=O)Nc1ccc(C(N)=O)c(Cl)c1", "percent effect": 6.955}
{"structure": "O=C(O)[C@H]1OCC(=O)N(Cc2cccc(F)c2)[C@@H]1c1ccc(Cl)cc1", "percent effect": 12.64}
{"structure": "Cc1nn(C)c(N2CCOCC2)c1CNC1CCN(C2CC2)CC1", "percent effect": 7.854}
{"structure": "Cc1cc(C(=O)N2CCOC(c3nc(C(C)C)n[nH]3)C2)c(C)s1", "stereo": "stereo unspecified", "percent effect": -5.296}
{"structure": "Cc1cc(C)c(CNC(=O)N2CCCC2c2ccccn2)c(=O)[nH]1", "stereo": "stereo unspecified", "percent effect": 5.867}
{"structure": "Cc1ccc(CNC(=O)CN2CCOC(Cn3cccn3)C2)s1", "stereo": "stereo unspecified", "percent effect": 0.08937}
{"structure": "CNC(=O)CN1CCOCC2(CCCN(Cc3cccnc3)C2)C1.O=C(O)C(F)(F)F.O=C(O)C(F)(F)F.O=C(O)C(F)(F)F", "stereo": "stereo unspecified", "percent effect": -12.18}
{"structure": "Nc1nc2nc(C3CCCN(C(=O)c4cncs4)C3)ccc2s1", "stereo": "stereo unspecified", "percent effect": -2.29}
{"structure": "CS(=O)(=O)N1CCCCCC1C1CCN(c2ncccn2)CC1", "stereo": "stereo unspecified", "percent effect": 2.968}
{"structure": "O=C(C1CC(c2ccccc2)=NO1)N1CCc2ccccc21", "stereo": "stereo unspecified", "percent effect": -8.391}
{"structure": "c1ccc(CCN2CCc3c(ncn3C3CC3)C2)nc1", "percent effect": "67.57 and 58.81"}
{"structure": "Cc1nn(C)c(C)c1CC(C)NC(=O)NCc1ccn(C(C)C)n1", "stereo": "stereo unspecified", "percent effect": 0.1098}
{"structure": "O=C(O)C(F)(F)F.O=c1cc(Cn2cncn2)nc2n1CCCN(Cc1ccc(F)cc1)C2", "percent effect": -1.609}
{"structure": "CCOc1cc(C(=O)NS(=O)(=O)c2cccc(C#N)c2)ccc1OC", "percent effect": -11.71}
{"structure": "COc1cccc(OC)c1CN1CCC2(CC(Nc3ccncn3)C2)C1", "stereo": "stereo unspecified", "percent effect": -12.96}
{"structure": "Cc1nn(C)c(N(C)C)c1CNC(C)Cc1c(F)cccc1F", "stereo": "stereo unspecified", "percent effect": -11.56}

The first 7 entries again:

| structure | percent effect |
|---|---|
| `CC1CCCN(c2ncc(-c3ccccc3F)c(-c3nccn3C)n2)C1` (stereo unspecified) | 1.54 |
| `COCC(=O)N(C)Cc1nc(N(C)C)ncc1-c1ccncc1` | -4.273 |
| `O=C(O)C(F)(F)F.O=C(c1ccoc1)N1CC[C@@H](N2CCOCC2)[C@@H]1Cc1ccccc1` | -6.569 |
| `CC(=O)Nc1ccc(CN2CCCC(c3cc4ncccc4[nH]3)C2)cc1` (stereo unspecified) | 9.518 |
| `CCc1nc(CN2CCCN(C(=O)COCC3CC3)CC2)cs1` | 11.27 |
| `Fc1ccc(Oc2nccnc2C2CCN(C3CCOCC3)CC2)cc1` | 6.652 |
| `C[C@@H]1CN(C(=O)c2nc3sccn3c2-c2ncc[nH]2)C[C@H](C)O1` | 0.641 |